{"source": "paper doi:10.1101/2020.07.15.204800", "about": "(bioRxiv, 2020)", "experiment_in_all_cases": "co-IP", "key": {"[1]": {"target": "T1, GFP fusion of WDR41 354-360 (linker) (UniProt Q9HAD4)", "T1 sequence": "KQQLAAE"}, "[2]": {"target": "T2, GFP fusion of WDR41 374-393 (linker) (UniProt Q9HAD4)", "T2 sequence": "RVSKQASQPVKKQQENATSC"}, "[3]": {"target": "T3, GFP fusion protein containing the WDR41 turn region (361-373)", "T3 sequence": "PVPTGFFNMWGFG"}, "[4]": {"target": "T4, WDR41-HA F366A (UniProt Q9HAD4)", "T4 sequence": "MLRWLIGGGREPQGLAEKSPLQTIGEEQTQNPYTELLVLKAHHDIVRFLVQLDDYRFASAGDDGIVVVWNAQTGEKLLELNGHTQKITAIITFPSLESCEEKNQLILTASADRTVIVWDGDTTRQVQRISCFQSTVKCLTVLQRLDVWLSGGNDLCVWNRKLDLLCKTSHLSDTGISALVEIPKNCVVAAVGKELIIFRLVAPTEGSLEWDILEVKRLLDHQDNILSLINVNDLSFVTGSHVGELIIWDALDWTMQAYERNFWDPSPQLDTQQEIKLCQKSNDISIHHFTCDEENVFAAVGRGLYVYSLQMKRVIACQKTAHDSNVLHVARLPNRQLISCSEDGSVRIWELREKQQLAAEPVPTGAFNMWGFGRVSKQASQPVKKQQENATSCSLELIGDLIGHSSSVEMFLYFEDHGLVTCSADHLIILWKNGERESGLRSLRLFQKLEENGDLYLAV"}, "[5]": {"target": "T5, WDR41-HA T364A (UniProt Q9HAD4)", "T5 sequence": "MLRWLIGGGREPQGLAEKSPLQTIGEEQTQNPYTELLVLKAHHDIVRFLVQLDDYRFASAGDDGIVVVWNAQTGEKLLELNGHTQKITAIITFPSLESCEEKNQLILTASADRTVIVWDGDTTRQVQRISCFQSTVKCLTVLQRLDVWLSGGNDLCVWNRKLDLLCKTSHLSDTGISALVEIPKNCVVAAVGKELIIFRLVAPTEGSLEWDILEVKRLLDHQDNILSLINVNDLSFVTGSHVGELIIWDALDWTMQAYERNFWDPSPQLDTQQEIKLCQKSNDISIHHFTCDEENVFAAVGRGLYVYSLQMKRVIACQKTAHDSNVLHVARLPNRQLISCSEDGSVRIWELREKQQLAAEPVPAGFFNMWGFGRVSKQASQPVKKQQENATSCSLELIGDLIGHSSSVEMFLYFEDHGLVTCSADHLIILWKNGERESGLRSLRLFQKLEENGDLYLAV"}, "[6]": {"target": "T6, WDR41-HA W370A (UniProt Q9HAD4)", "T6 sequence": "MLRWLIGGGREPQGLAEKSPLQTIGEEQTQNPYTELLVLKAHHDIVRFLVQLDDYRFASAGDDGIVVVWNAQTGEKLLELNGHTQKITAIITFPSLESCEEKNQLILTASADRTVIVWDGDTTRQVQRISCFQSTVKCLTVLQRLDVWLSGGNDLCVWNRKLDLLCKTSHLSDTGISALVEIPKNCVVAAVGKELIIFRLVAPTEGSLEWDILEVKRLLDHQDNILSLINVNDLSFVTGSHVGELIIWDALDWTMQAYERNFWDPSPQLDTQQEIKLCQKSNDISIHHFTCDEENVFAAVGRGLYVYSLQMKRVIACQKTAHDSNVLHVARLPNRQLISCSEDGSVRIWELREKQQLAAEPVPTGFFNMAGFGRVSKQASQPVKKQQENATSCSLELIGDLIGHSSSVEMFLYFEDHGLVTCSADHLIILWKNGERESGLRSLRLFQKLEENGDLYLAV"}, "[7]": {"target": "T7, WDR41-HA with deletion of the second linker sub-region of the 7CD loop (374-393) (UniProt Q9HAD4)", "T7 sequence": "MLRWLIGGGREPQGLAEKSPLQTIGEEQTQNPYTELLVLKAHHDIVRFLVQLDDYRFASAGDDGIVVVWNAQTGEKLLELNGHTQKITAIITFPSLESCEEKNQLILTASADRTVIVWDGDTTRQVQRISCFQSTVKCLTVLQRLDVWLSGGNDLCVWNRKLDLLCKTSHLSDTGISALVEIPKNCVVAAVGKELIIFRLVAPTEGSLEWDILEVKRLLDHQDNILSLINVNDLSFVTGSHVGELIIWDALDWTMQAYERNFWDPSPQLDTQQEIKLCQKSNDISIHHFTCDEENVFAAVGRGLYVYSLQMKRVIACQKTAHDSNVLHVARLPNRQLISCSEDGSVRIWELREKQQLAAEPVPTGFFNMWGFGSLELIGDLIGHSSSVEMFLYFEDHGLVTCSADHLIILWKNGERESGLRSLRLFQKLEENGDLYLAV"}, "[8]": {"target": "T8, WDR41-HA with glycine 373 substituted by valine (UniProt Q9HAD4)", "T8 sequence": "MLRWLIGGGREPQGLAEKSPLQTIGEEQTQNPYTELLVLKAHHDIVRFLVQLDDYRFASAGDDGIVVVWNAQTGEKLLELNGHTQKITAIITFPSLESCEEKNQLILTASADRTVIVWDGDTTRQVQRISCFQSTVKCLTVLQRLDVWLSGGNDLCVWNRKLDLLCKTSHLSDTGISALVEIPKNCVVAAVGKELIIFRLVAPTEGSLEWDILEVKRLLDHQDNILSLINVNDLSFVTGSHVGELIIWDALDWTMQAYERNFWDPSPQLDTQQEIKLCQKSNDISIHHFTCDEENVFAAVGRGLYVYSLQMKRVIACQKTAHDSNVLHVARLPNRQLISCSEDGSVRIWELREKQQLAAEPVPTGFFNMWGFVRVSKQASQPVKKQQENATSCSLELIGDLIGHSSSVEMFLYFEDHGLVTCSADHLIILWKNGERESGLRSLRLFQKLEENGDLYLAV"}}, "note": "These are yes or no findings as the source states them, for the method shown. Binding seen in cells or lysates may run through a third protein. Some binding calls cover weakened binding; strength is not graded here. Sequences can lack the tags named with a protein.", "data": [{"binder": "SMCR8 (protein, UniProt Q8TEV9 1-937) MISAPDVVAFTKEEEYEEEPYNEPALPEEYSVPLFPFASQGANPWSKLSGAKFSRDFILISEFSEQVGPQPLLTIPNDTKVFGTFDLNYFSLRIMSVDYQASFVGHPPGSAYPKLNFVEDSKVVLGDSKEGAFAYVHHLTLYDLEARGFVRPFCMAYISADQHKIMQQFQELSAEFSRASECLKTGNRKAFAGELEKKLKDLDYTRTVLHTETEIQKKANDKGFYSSQAIEKANELASVEKSIIEHQDLLKQIRSYPHRKLKGHDLCPGEMEHIQDQASQASTTSNPDESADTDLYTCRPAYTPKLIKAKSTKCFDKKLKTLEELCDTEYFTQTLAQLSHIEHMFRGDLCYLLTSQIDRALLKQQHITNFLFEDFVEVDDRMVEKQESIPSKPSQDRPPSSSLEECPIPKVLISVGSYKSSVESVLIKMEQELGDEEYKEVEVTELSSFDPQENLDYLDMDMKGSISSGESIEVLGTEKSTSVLSKSDSQASLTVPLSPQVVRSKAVSHRTISEDSIEVLSTCPSEALIPDDFKASYPSAINEEESYPDGNEGAIRFQASISPPELGETEEGSIENTPSQIDSSCCIGKESDGQLVLPSTPAHTHSDEDGVVSSPPQRHRQKDQGFRVDFSVENANPSSRDNSCEGFPAYELDPSHLLASRDISKTSLDNYSDTTSYVSSVASTSSDRIPSAYPAGLSSDRHKKRAGQNALKFIRQYPFAHPAIYSLLSGRTLVVLGEDEAIVRKLVTALAIFVPSYGCYAKPVKHWASSPLHIMDFQKWKLIGLQRVASPAGAGTLHALSRYSRYTSILDLDNKTLRCPLYRGTLVPRLADHRTQIKRGSTYYLHVQSMLTQLCSKAFLYTFCHHLHLPTHDKETEELVASRQMSFLKLTLGLVNEDVRVVQYLAELLKLHYMQESPGTSHPMLRFDYVPSFLYKI", "values": [{"measurement": "binding", "setting": "[1]", "value": "no binding"}, {"measurement": "binding", "setting": "[2]", "value": "no binding"}, {"measurement": "binding", "setting": "[3]", "value": "no binding"}, {"measurement": "binding", "setting": "[4]", "value": "binds"}, {"measurement": "binding", "setting": "[5]", "value": "binds"}, {"measurement": "binding", "setting": "[6]", "value": "binds"}, {"measurement": "binding", "setting": "[7]", "value": "binds"}, {"measurement": "binding", "setting": "[8]", "value": "binds"}]}, {"binder": "PQLC2-FLAG wild type (protein, UniProt Q6ZP29 1-291) MVWKKLGSRNFSSCPSGSIQWIWDVLGECAQDGWDEASVGLGLISILCFAASTFPQFIKAYKTGNMDQALSLWFLLGWIGGDSCNLIGSFLADQLPLQTYTAVYYVLADLVMLTLYFYYKFRTRPSLLSAPINSVLLFLMGMACATPLLSAAGPVAAPREAFRGRALLSVESGSKPFTRQEVIGFVIGSISSVLYLLSRLPQIRTNFLRKSTQGISYSLFALVMLGNTLYGLSVLLKNPEEGQSEGSYLLHHLPWLVGSLGVLLLDTIISIQFLVYRRSTAASELEPLLPS", "values": [{"measurement": "binding", "setting": "[1]", "value": "no binding"}, {"measurement": "binding", "setting": "[2]", "value": "no binding"}, {"measurement": "binding", "setting": "[3]", "value": "binds"}, {"measurement": "binding", "setting": "[4]", "value": "no binding"}, {"measurement": "binding", "setting": "[5]", "value": "binds"}, {"measurement": "binding", "setting": "[6]", "value": "no binding"}, {"measurement": "binding", "setting": "[7]", "value": "no binding"}, {"measurement": "binding", "setting": "[8]", "value": "binds"}]}]}
